Source: the supplement of paper PMC10849652
The other results are listed elsewhere or left out.

Protein sequences, listed by entry. Tags and fused reporters are not part of them. Lines headed by an entry give the natural chain unless they say otherwise; changes in a name come on top.
UniProt P00505: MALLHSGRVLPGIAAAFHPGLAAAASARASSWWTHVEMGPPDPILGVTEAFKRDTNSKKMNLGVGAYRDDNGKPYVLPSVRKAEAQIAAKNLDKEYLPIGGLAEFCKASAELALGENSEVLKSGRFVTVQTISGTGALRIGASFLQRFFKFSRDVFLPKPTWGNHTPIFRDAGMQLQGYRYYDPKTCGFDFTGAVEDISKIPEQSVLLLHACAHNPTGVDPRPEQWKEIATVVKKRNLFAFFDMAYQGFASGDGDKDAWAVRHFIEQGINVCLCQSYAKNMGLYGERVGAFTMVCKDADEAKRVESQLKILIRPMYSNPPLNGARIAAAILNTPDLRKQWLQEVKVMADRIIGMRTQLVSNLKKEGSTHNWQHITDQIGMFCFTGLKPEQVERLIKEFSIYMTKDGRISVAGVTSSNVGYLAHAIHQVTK
UniProt Q8IW92: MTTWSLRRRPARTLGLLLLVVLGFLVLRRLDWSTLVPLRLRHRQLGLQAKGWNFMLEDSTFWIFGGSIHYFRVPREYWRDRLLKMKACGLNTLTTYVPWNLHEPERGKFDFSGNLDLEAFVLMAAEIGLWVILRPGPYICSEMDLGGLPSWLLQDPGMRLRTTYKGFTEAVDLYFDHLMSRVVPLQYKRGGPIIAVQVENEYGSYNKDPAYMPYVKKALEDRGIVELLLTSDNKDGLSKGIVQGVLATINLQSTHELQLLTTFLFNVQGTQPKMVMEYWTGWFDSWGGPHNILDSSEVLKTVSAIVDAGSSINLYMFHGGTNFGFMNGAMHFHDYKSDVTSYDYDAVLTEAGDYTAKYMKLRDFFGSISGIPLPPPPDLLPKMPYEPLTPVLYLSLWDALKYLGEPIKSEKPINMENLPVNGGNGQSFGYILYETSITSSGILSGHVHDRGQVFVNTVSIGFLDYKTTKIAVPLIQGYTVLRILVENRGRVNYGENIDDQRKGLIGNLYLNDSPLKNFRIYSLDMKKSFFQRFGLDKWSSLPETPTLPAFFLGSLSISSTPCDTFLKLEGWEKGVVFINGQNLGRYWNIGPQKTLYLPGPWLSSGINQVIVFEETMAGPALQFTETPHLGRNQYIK
UniProt Q8TBA6: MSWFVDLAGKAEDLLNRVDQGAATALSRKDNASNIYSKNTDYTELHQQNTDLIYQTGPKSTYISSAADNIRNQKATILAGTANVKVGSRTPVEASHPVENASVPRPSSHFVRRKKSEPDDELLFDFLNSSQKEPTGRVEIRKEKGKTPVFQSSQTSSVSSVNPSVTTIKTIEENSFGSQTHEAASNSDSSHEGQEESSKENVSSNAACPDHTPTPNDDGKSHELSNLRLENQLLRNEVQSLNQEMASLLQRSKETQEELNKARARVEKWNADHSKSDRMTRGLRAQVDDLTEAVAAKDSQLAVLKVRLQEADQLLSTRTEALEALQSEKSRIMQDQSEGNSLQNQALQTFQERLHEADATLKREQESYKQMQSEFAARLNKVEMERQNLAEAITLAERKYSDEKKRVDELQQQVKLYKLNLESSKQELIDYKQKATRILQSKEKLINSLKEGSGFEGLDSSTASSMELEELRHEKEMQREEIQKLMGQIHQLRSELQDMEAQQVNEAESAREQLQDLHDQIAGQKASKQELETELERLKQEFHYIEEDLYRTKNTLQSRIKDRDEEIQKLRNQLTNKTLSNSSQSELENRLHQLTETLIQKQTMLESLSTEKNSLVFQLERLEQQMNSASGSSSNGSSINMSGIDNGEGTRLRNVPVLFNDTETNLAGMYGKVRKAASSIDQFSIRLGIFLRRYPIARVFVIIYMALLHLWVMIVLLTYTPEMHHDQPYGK
UniProt Q9HAV7: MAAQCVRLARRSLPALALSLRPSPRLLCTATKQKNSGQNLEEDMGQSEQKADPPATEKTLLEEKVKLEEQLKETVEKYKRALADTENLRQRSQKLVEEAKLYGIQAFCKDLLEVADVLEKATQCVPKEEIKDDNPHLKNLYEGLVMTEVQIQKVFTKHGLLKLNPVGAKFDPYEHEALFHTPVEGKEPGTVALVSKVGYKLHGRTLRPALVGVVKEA
UniProt P13224: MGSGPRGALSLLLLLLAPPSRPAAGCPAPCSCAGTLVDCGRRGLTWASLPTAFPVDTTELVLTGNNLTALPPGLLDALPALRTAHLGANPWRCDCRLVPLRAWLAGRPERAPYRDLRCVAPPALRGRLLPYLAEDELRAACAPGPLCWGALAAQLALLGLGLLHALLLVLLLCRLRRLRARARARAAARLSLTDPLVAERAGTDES
UniProt Q4V328: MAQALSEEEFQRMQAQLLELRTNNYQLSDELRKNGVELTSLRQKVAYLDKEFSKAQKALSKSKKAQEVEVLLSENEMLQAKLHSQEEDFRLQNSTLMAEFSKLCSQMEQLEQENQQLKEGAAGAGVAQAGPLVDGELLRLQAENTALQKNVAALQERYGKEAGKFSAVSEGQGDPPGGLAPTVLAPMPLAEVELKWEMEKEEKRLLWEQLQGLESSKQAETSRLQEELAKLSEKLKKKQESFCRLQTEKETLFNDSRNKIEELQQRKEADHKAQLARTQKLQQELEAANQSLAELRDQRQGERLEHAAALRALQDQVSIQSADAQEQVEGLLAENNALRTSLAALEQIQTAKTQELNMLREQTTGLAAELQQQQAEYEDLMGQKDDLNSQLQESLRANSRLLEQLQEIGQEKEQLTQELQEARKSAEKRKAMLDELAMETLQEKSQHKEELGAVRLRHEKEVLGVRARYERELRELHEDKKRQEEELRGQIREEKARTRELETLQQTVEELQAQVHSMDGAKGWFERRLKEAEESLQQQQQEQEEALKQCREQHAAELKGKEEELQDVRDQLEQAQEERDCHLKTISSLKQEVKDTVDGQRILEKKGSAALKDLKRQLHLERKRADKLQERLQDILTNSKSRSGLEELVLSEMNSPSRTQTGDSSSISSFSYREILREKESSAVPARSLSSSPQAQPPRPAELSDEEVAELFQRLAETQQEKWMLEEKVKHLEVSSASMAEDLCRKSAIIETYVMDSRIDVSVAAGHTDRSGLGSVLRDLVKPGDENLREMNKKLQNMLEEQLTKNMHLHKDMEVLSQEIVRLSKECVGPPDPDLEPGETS
UniProt Q13098: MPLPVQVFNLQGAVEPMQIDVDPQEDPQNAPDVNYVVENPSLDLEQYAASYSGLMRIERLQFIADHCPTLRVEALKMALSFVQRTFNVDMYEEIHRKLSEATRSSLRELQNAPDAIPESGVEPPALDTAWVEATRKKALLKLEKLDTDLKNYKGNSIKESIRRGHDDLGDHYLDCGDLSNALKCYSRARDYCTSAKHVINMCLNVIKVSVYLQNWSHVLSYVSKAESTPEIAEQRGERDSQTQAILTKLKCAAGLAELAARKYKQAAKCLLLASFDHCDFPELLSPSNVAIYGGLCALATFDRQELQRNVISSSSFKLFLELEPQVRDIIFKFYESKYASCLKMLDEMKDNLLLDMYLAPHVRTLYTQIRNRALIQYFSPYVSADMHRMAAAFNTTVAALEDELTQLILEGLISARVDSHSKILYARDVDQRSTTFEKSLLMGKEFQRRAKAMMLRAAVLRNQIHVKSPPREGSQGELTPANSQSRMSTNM
UniProt P28799: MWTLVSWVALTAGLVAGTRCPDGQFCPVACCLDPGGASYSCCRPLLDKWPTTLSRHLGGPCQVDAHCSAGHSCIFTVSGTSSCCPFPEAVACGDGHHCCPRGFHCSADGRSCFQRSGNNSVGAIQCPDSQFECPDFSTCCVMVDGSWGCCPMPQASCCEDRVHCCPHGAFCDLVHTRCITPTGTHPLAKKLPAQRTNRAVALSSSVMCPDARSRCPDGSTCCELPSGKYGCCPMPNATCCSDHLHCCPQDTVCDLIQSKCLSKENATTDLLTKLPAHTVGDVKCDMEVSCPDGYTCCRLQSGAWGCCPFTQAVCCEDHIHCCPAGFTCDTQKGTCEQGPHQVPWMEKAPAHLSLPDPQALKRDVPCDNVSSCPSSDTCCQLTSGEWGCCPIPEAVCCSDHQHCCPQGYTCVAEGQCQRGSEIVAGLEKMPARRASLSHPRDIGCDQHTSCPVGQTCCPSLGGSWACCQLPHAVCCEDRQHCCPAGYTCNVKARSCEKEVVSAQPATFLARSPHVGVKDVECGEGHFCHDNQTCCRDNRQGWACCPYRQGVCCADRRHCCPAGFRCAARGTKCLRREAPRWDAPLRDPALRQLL
UniProt Q8N335: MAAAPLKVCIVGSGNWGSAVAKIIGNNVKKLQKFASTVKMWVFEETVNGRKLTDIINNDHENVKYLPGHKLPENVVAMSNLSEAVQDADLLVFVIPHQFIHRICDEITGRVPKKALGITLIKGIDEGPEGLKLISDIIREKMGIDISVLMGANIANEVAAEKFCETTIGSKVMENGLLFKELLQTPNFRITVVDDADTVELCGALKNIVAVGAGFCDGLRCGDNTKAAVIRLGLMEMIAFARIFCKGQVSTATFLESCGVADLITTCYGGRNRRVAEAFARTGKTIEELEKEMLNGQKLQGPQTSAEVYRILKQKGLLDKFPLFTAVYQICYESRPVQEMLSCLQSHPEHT
UniProt Q3T906: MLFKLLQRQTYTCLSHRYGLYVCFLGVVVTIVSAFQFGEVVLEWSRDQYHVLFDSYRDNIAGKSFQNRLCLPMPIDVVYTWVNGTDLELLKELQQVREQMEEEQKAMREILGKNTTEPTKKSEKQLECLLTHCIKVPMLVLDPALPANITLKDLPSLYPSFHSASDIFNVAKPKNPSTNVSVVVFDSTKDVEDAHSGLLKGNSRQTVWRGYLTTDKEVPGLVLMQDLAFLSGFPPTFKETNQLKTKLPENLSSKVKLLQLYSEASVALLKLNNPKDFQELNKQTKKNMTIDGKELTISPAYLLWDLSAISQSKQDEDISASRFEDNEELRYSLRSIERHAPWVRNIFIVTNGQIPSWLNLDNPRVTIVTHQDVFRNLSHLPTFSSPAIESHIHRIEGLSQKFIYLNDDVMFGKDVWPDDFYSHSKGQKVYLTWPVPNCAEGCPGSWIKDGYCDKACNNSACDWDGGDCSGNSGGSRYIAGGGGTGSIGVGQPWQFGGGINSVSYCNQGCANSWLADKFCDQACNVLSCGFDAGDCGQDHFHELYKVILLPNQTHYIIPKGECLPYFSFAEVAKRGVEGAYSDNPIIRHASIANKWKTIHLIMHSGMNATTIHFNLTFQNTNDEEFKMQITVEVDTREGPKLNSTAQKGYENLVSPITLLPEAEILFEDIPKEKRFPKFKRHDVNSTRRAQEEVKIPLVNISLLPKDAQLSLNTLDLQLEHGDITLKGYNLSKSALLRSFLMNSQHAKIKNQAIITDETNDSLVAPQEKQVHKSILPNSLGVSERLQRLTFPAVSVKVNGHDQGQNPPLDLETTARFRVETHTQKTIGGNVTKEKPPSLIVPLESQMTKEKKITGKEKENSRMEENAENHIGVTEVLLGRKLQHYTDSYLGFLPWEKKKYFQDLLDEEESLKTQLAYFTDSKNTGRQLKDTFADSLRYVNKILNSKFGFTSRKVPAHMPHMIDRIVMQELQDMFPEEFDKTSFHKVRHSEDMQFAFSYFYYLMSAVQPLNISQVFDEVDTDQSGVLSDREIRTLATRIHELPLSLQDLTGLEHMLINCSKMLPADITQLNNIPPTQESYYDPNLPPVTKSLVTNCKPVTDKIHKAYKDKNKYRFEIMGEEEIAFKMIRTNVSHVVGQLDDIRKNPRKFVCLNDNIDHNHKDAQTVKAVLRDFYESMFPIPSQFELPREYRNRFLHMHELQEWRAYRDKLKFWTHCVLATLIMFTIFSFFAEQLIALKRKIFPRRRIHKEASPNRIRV
UniProt Q12849: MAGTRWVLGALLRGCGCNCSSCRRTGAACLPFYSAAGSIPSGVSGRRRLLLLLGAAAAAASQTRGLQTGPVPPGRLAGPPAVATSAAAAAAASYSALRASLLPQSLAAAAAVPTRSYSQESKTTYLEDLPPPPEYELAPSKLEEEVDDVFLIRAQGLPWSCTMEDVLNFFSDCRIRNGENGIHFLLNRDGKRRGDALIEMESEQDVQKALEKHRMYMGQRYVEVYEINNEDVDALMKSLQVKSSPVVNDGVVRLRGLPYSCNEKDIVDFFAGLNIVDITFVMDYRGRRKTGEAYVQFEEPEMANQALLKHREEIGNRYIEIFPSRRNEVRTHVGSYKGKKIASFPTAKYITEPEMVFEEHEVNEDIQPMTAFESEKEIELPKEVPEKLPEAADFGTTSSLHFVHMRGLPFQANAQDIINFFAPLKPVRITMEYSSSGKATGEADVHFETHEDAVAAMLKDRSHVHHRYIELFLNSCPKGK
UniProt P46926: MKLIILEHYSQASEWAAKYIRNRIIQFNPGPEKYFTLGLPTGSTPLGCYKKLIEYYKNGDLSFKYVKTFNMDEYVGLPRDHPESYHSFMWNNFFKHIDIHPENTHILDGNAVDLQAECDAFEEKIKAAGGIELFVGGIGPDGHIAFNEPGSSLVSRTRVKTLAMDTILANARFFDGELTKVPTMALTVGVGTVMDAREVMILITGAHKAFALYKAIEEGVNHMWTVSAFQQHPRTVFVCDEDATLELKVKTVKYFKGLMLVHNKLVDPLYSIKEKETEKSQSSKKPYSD

Legend:
Experiment in all cases: log2 fold change, soluble protein after heating vs DMSO (PISA); higher = thermal stabilisation; K562 cells, 10 uM, 30 min; active = over 0.2 and 3.5 SD of the protein, either way, in both replicates (recomputed)
[1] = compound: CS(=O)(=O)c1ccc(-c2cnc(N)c(C(=O)Nc3ccccc3)n2)cc1
Method in brief: (§1)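 K562 cells (2×10^6 cells/mL) were treated with 10 μM compound for 30 min, and aliquots were heated for 3 min over 48°C-58°C. Pooled aliquots were extracted in PBS with 0.5% NP-40 at 4°C, and the supernatant after 21,000xg for 90 min was measured by TMTpro 16plex LC-MS/MS with channel sums equalised. Reported thermal stability, relative to control samples and from duplicates, is a log2 fold change.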

[2] = compound: C[C@@H](Oc1cc(-c2cnn(C3CCNCC3)c2)cnc1N)c1c(Cl)ccc(F)c1Cl [crizotinib]
Method in brief: as §1

[3] = compound: C[C@@H]1COCCN1C2=NC(=NC(=C2)C3(CC3)S(=O)(=O)C)C4=C5C=CNC5=CC=C4
Method in brief: as §1

[4] = compound: C[C@H](C1=CC=C(C=C1)C(=O)NC2=C3C=CNC3=NC=C2)N
Method in brief: as §1

[5] = compound: C[C@H](Nc1ncnc2nc[nH]c12)c1cc2cccc(Cl)c2c(=O)n1-c1ccccc1 [duvelisib]
Method in brief: as §1

[6] = compound: Cc1cc(Nc2cc(CN3CCOCC3)c3nc(C)c(Cc4ccc(Cl)cc4F)n3n2)n[nH]1 [gandotinib]
Method in brief: as §1

[7] = compound: Cc1cc(Nc2cc(N3CCN(C)CC3)nc(Sc3ccc(NC(=O)C4CC4)cc3)n2)n[nH]1 [tozasertib]
Method in brief: as §1

[8] = compound: Cc1cc(SCc2sc(-c3ccc(C(F)(F)F)cc3)nc2C)ccc1OCC(=O)O
Method in brief: as §1

[9] = compound: Cc1ccc(-n2nc(C(C)(C)C)cc2NC(=O)Nc2ccc(OCCN3CCOCC3)c3ccccc23)cc1 [doramapimod]
Method in brief: as §1

[10] = compound: Cc1ccc(C(=O)N(CCCN)[C@@H](c2nc3cc(Cl)ccc3c(=O)n2Cc2ccccc2)C(C)C)cc1 [ispinesib]
Method in brief: as §1

Measured: log2 fold change

GOT2 (UniProt P00505)
inactive: [1] 0.018 | [2] 0.056 | [3] -0.011 | [4] -0.102 | [5] 0.004 | [6] 0.046 | [7] -0.004 | [8] -0.02 | [9] -0.048 | [10] 0.013

GLB1L2 (UniProt Q8IW92)
inactive: [1] 0.05 | [2] 0.026 | [3] 0.069 | [4] 0.118 | [5] -0.014 | [6] -0.114 | [7] -0.045 | [8] 0.027 | [9] -0.021 | [10] -0.043

GNB1L (UniProt Q9BYB4)
inactive: [1] 0.016 | [2] 0.013 | [3] 0.016 | [4] -0.063 | [5] 0.031 | [6] -0.036 | [7] -0.008 | [8] -0.013 | [9] -0.031 | [10] 0.009

GOLGA7 (UniProt Q7Z5G4)
inactive: [1] 0.077 | [2] 0.05 | [3] 0.116 | [4] -0.094 | [5] 0.043 | [6] 0.025 | [7] -0.05 | [8] -0.029 | [9] -0.069

GLRX2 isoform 2 (UniProt Q9NS18)
inactive: [1] -0.022 | [2] 0.035 | [3] -0.024 | [4] -0.115 | [5] 0.031 | [6] -0.088 | [7] 0.026 | [8] 0.079 | [9] -0.077 | [10] 0.081

GORASP2 isoform 3 (UniProt Q9H8Y8)
inactive: [1] 0.017 | [2] 0.029 | [3] 0.022 | [4] 0.124 | [5] -0.023 | [6] -0.113 | [7] 0.005 | [8] 0.134 | [9] 0.096 | [10] 0.083

GOLGA5 (UniProt Q8TBA6)
inactive: [1] 0.027 | [2] 0.066 | [3] -0.007 | [4] -0.036 | [5] -0.018 | [6] 0.039 | [7] 0.001 | [8] -0.024 | [9] -0.018 | [10] 0.106

GRPEL1 (UniProt Q9HAV7)
inactive: [1] 0.007 | [2] 0.063 | [3] 0.069 | [4] -0.052 | [5] 0.005 | [6] -0.009 | [7] 0.001 | [8] -0.03 | [9] -0.024 | [10] 0.115

GRWD1 (UniProt Q9BQ67)
inactive: [1] -0.024 | [2] 0.063 | [3] -0.398 | [4] 0.376 | [5] -0.178 | [6] 0.215 | [7] 0.085 | [8] 0.065 | [9] 0.13 | [10] -0.094

GP1BB isoform 2 (UniProt P13224)
inactive: [1] 0.03 | [2] -0.116 | [3] -0.049 | [4] 0.027 | [5] 0.021 | [6] -0.021 | [7] 0.006 | [8] 0.023 | [9] 0.003

GINS4 (UniProt Q9BRT9)
inactive: [1] -0.029 | [2] 0.014 | [3] -0.026 | [4] -0.095 | [5] 0.055 | [6] -0.086 | [7] -0.019 | [8] 0.106 | [9] -0.018 | [10] -0.007

GPBP1 isoform 2 (UniProt Q86WP2)
inactive: [1] 0.013 | [2] 0.007 | [3] 0.005 | [4] 0.096 | [5] -0.013 | [6] 0.052 | [7] 0.085 | [8] 0.008 | [9] 0.008 | [10] -0.032

GNAI2 isoform 4 (UniProt P04899)
inactive: [1] 0.073 | [2] 0.113 | [3] 0.034 | [4] -0.081 | [5] 0.082 | [6] -0.013 | [7] 0.015 | [8] 0.011 | [9] -0.017 | [10] 0.001

GOLIM4 (UniProt F8W785)
inactive: [1] 0.141 | [2] -0.166 | [3] -0.095 | [4] 0.117 | [5] -0.007 | [6] 0.115 | [7] 0.104 | [8] -0.063 | [9] -0.014

GPBP1L1 (UniProt Q9HC44)
inactive: [1] 0.064 | [2] -0.128 | [3] -0.011 | [4] 0.015 | [5] 0.059 | [6] 0.063 | [7] -0.009 | [8] 0.033 | [9] 0.028 | [10] -0.049

GRIPAP1 (UniProt Q4V328)
inactive: [1] -0.043 | [2] 0.033 | [3] -0.035 | [4] 0.01 | [5] -0.029 | [6] -0.069 | [7] 0.17 | [8] 0.013 | [9] 0.038 | [10] -0.03

GPD2 (UniProt P43304)
inactive: [1] 0.023 | [2] 0.062 | [3] -0.009 | [4] -0.021 | [5] -0.004 | [6] -0.004 | [7] -0.042 | [8] -0.03 | [9] -0.038 | [10] 0.099

GPS1 isoform 7 (UniProt Q13098)
inactive: [1] -0.011 | [2] 0.002 | [3] 0.046 | [4] -0.077 | [5] 0.014 | [6] -0.021 | [7] 0.001 | [8] -0.025 | [9] -0.014 | [10] 0.027

GRN (UniProt P28799)
inactive: [1] -0.033 | [2] 0.051 | [3] 0.025 | [4] -0.01 | [5] 0.074 | [6] 0.004 | [7] -0.022 | [8] -0.077 | [9] 0.067 | [10] -0.058

GPD1L (UniProt Q8N335)
inactive: [1] -0.054 | [2] 0.099 | [3] 0.044 | [4] 0.043 | [5] 0.062 | [6] 0.036 | [7] -0.029 | [8] -0.01 | [9] -0.012 | [10] 0.041

GPATCH8 (UniProt Q9UKJ3)
inactive: [1] -0.015 | [2] -0.051 | [3] 0.007 | [4] 0.01 | [5] -0.018 | [6] 0.017 | [7] -0.02 | [8] -0.063 | [9] 0.015 | [10] 0.011

GNPTAB (UniProt Q3T906)
inactive: [1] -0.051 | [2] 0.042 | [3] -0.149 | [4] 0.133 | [5] 0.042 | [6] 0.047 | [7] -0.034 | [8] -0.062 | [9] 0.023 | [10] 0.037

GNPNAT1 (UniProt Q96EK6)
inactive: [1] -0.021 | [2] 0.01 | [3] 0.049 | [4] -0.1 | [5] 0.017 | [6] -0.006 | [7] -0.036 | [8] -0.1 | [9] -0.002 | [10] 0.03

GRSF1 (UniProt Q12849)
inactive: [1] -0.039 | [2] -0.045 | [3] -0.001 | [4] 0.249 | [5] 0 | [6] 0.043 | [7] -0.004 | [8] 0.167 | [9] 0.009 | [10] -0.161

GNPDA1 (UniProt P46926)
inactive: [1] 0.009 | [2] 0.062 | [3] 0.019 | [4] -0.049 | [5] 0.012 | [6] -0.019 | [7] 0.009 | [8] -0.048 | [9] -0.031 | [10] 0.024

GPALPP1 (UniProt Q8IXQ4)
inactive: [1] 0.015 | [2] 0.029 | [3] 0.018 | [4] -0.07 | [5] 0.032 | [6] 0.037 | [7] -0.02 | [8] -0.058 | [9] 0 | [10] 0.053

GPN1 isoform 5 (UniProt Q9HCN4)
inactive: [1] 0.034 | [2] 0.05 | [3] 0.09 | [4] -0.021 | [5] 0.014 | [6] -0.092 | [7] -0.016 | [8] 0.04 | [9] -0.006 | [10] 0.021

2 consecutive records already listed, for reference:
GRIPAP1 (UniProt Q4V328)
inactive: [1] -0.043 | [2] 0.033 | [3] -0.035 | [4] 0.01 | [5] -0.029 | [6] -0.069 | [7] 0.17 | [8] 0.013 | [9] 0.038 | [10] -0.03

GPD2 (UniProt P43304)
inactive: [1] 0.023 | [2] 0.062 | [3] -0.009 | [4] -0.021 | [5] -0.004 | [6] -0.004 | [7] -0.042 | [8] -0.03 | [9] -0.038 | [10] 0.099
